# Laboratory results taken from PubChem BioAssay AID2685 (National Center for Advancing Translational Sciences (NCATS), 2010).
# The other results are listed elsewhere or left out. The main result of the screen is listed elsewhere. These columns were measured beside it and carry no call. Most of these compounds were active or inconclusive in the main read-out, so they are no random draw. The note in brackets gives the kind of curve behind each potency; many fits are weak.
# Assay: qHTS Assay for Lipid Storage Modulators in Drosophila S3 Cells;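 as to cell number change: cells counted by Cell Tracker Red CMTPX staining in the red channel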
# Settings: BODIPY lipid droplet fluorescence, 18-24 h; for cell number change: measured here: cell count max response, cells fed with added oleic acid
# How it was run: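 Drosophila S3 cells got compounds at several concentrations plus oleic acid (400 uM solution). Laser-scanning cytometry with 488 nm excitation read lipid droplets at 500-530 nm and cells at 575-640 nm. Percent activity was relative to 20 uM Triacsin C.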
# [1] = measured here: cell number channel AC50, cells fed with added oleic acid
# [2] = measured here: lipid fluorescence (Fed channel) AC50, cells fed with added oleic acid
compound,measurement,setting,value
CCN(CC)C(=S)Nc1ccc([N+](=O)[O-])cc1,cell number change,,-16.7%
same,AC50,[1],"580 nM [falling, single point]"
CCOC(=O)c1c(CN2CCN(C)CC2)oc2ccc(OC)cc12,cell number change,,16.5%
same,AC50,[2],"20600 nM [rising, single point]"
COc1cc(C(=O)N/N=C(\C)c2ccc3c(c2)OCO3)cc(OC)c1OC,cell number change,,65.1%
same,AC50,[1],"6510 nM [falling, single point]"
Cn1c(=O)c2c(nc(NCc3ccco3)n2CCc2ccccc2)n(C)c1=O,AC50,[2],"9200 nM [falling, partial curve]"
Cc1ccc(F)cc1NC(=O)CCOc1ccccc1,cell number change,,-10.3%
same,AC50,[1],"411 nM [rising, full curve]"
same,AC50,[2],"1030 nM [rising, full curve]"
O=C(CCCCCN1C(=O)c2cccc([N+](=O)[O-])c2C1=O)Nc1ccccc1F,cell number change,,-13.2%
O=C(COc1cccc2ccccc12)NNC(=O)c1cccs1,cell number change,,10.8%
COc1cccc(C(=O)COc2ccc3c(C)c(Cc4ccccc4)c(=O)oc3c2)c1,cell number change,,-12.7%
same,AC50,[1],"580 nM [rising, single point]"
same,AC50,[2],"32600 nM [rising, single point]"
O=C(CN1C(=O)NC2(CCCCC2)C1=O)Nc1nc2c(F)cc(F)cc2s1,cell number change,,13.5%
COc1ccc(CN(C)CC(=O)Nc2ccccc2-c2ccccc2)c(OC)c1,cell number change,,-23.9%
COc1ccccc1N(C)S(=O)(=O)c1ccc(C(=O)NC(C)c2ccccc2)cc1 (stereo not drawn),cell number change,,-2.2%
same,AC50,[2],"5800 nM [rising, single point]"
CCOC(=O)CSC1=NC(=O)/C(=C/c2ccc(OC)cc2)S1,cell number change,,-22.4%
same,AC50,[2],"29100 nM [falling, single point]"
COc1cccc(CN2CCN(c3nc4nonc4nc3NC3CC3)CC2)c1,cell number change,,5.85%
same,AC50,[2],"6510 nM [falling, single point]"
CCC1Oc2ccc(Cl)cc2N(CC(=O)O)C1=O (stereo not drawn),cell number change,,-22.7%
same,AC50,[2],"820 nM [falling, single point]"
CCOc1ccc2nc(NC3=NC(c4ccc(OC)cc4)CC(=O)N3)nc(C)c2c1 (stereo not drawn),cell number change,,-14%
same,AC50,[2],"29100 nM [falling, single point]"
CCn1c(CSc2nc3ccccc3[nH]2)n[nH]c1=S,AC50,[2],"820 nM [falling, full curve]"
O=c1[nH]nc(CNc2ccc(C(F)(F)F)cc2)c2ccccc12,AC50,[2],"580 nM [falling, single point]"
CCOc1ccc2oc(C(=O)OCC(=O)N3CCCC(C)C3)c(C)c2c1 (stereo not drawn),cell number change,,8.4%
same,AC50,[2],"366 nM [falling, partial curve, poor fit]"
CC(Oc1ccc2c(c1)oc(=O)c1ccccc12)C(=O)NCC1CCC(C(=O)O)CC1 (stereo not drawn),cell number change,,-12%
COc1cccc(CNC(=O)CN2C(=O)COc3ccc(S(=O)(=O)N4CCCCC4)cc32)c1,cell number change,,-37.3%
same,AC50,[2],"5170 nM [rising, single point]"
COc1cccc(NC(=O)CCC(=O)Nc2cc(OC)c(NC(=O)c3cccs3)cc2OC)c1,cell number change,,-17.3%
same,AC50,[2],"20600 nM [falling, partial curve]"
CCCOc1ccc(C2C(C(=O)c3ccc(C)o3)=C(O)C(=O)N2Cc2cccnc2)cc1 (stereo not drawn),cell number change,,-4.61%
same,AC50,[2],"5.17 nM [falling, full curve, poor fit]"
O=C(Nc1ccc(S(=O)(=O)N2CCCC2)cc1)C1CC(=O)N(c2ccc(F)cc2)C1 (stereo not drawn),cell number change,,1.9%
same,AC50,[1],"130 nM [rising, full curve, poor fit]"
CCOC(=O)C1CCN(C(=O)CC(C)S(=O)(=O)c2ccc3c(c2)NC(=O)CO3)CC1 (stereo not drawn),cell number change,,-20%
same,AC50,[2],"184 nM [rising, full curve]"
O=C(CSc1nc(C2CC2)nc2ccccc12)Nc1cccc(O)c1,cell number change,,21.3%
same,AC50,[2],"29100 nM [falling, single point]"
C[S+](CC[C@H](N)C(=O)O)C[C@H]1O[C@@H](n2cnc3c(N)ncnc32)[C@H](O)[C@@H]1O (stereo partly drawn),cell number change,,15.8%
same,AC50,[1],"206 nM [rising, full curve, poor fit]"
same,AC50,[2],"164 nM [rising, full curve, poor fit]"
O=C1NCC(COc2cccc3ccccc23)O1 (stereo not drawn),cell number change,,98.6%
same,AC50,[1],"20600 nM [rising, single point]"
Cc1nn(Cc2ccc(F)cc2)c(C)c1NC(=O)c1noc2c1CCc1ccccc1-2,AC50,[1],"146 nM [rising, full curve, poor fit]"
same,AC50,[2],"411 nM [rising, full curve]"
COC(=O)Cn1c(C)nc([N+](=O)[O-])c1Br,cell number change,,23.9%
same,AC50,[2],"580 nM [rising, partial curve, poor fit]"
O=C(NCc1cccs1)c1cc(-c2ccncc2)nc2ccc(Br)cc12,cell number change,,6.15%
same,AC50,[2],"20600 nM [falling, partial curve, poor fit]"
COc1cc(OC)c2c(c1)S(=O)(=O)C(c1ccccc1)=C2N,cell number change,,22.8%
same,AC50,[1],"6510 nM [rising, single point]"
same,AC50,[2],"5800 nM [rising, single point]"
COc1ccccc1NC(=O)c1cc(Sc2nncn2C)nc2ccccc12,cell number change,,13.6%
same,AC50,[2],"29100 nM [rising, single point]"
O=C(CN1C(=O)C2CC=CCC2C1=O)Nc1nc2ccc(F)cc2s1 (stereo not drawn),cell number change,,-46.6%
same,AC50,[2],"116 nM [rising, full curve, poor fit]"
O=C(CSc1nnc(-c2cccs2)n1-c1ccccc1)N1CCCC1,cell number change,,21.8%
same,AC50,[1],"6510 nM [rising, single point]"
Cc1nnc(SCC(=O)NNC(=O)c2ccco2)n1-c1cccc(Cl)c1,cell number change,,-9.68%
same,AC50,[1],"1460 nM [rising, partial curve]"
same,AC50,[2],"1460 nM [rising, partial curve]"
Cc1ccc(/C=N/Nc2ccccn2)s1,cell number change,,12.5%
same,AC50,[2],"18400 nM [rising, single point]"
Cc1ccc(NC(=O)CCC(=O)NNC(=S)Nc2ccc(F)cc2F)cc1C,cell number change,,-25.1%
same,AC50,[2],"251 nM [falling, partial curve]"
O=C(OCc1cc(=O)n2cc(Br)ccc2n1)C1COc2ccccc2O1 (stereo not drawn),cell number change,,-21.8%
same,AC50,[1],"82 nM [falling, full curve, poor fit]"
same,AC50,[2],"58 nM [falling, full curve, poor fit]"
CCc1ccc(C(=O)COC(=O)C(Cc2ccccc2)NC(=O)c2ccc(Cl)cc2)cc1 (stereo not drawn),cell number change,,-15.6%
CCCn1c(SCC(=O)Nc2cccc(C(=O)OCC)c2)nnc1-c1ccoc1C,cell number change,,-5.49%
same,AC50,[2],"731 nM [rising, full curve, poor fit]"
COc1ccc(Cn2cc([N+](=O)[O-])nc2C)cc1[N+](=O)[O-],cell number change,,34.8%
same,AC50,[1],"291 nM [rising, full curve, poor fit]"
same,AC50,[2],"259 nM [rising, full curve, poor fit]"
CN(CC(=O)Nc1ccc(F)cc1)C(=O)c1cc([N+](=O)[O-])ccc1N1CCOCC1,AC50,[2],"73.1 nM [rising, full curve, poor fit]"
Cc1nc2cc(NC(=O)CS(=O)(=O)c3ccc(F)cc3)ccc2s1,AC50,[1],"731 nM [rising, partial curve, poor fit]"
same,AC50,[2],"4.61 nM [rising, full curve, poor fit]"
CC(=O)N(C)c1ccc(N=Cc2c(O)ccc3ccccc23)cc1,cell number change,,-26.7%
same,AC50,[2],"14600 nM [falling, partial curve, poor fit]"
COc1cc(OC)c2ccc(=O)oc2c1C(CC(=O)N1CCCC(C)C1)c1ccc2c(c1)OCO2 (stereo not drawn),cell number change,,18.4%
same,AC50,[2],"517 nM [rising, full curve]"
O=C(CSc1nnc(SCc2ccccc2)s1)N/N=C/c1c[nH]c2ccccc12,cell number change,,-69.6%
same,AC50,[1],"20600 nM [falling, single point]"
same,AC50,[2],"29100 nM [falling, single point]"
O=C1[C@@H]2Cc3c([nH]c4ccccc34)[C@@H](c3ccccc3)N2C(=O)[C@@H]2Cc3c([nH]c4ccccc34)[C@@H](c3ccccc3)N12,cell number change,,-32.8%
same,AC50,[1],"6510 nM [falling, partial curve]"
same,AC50,[2],"5170 nM [falling, full curve]"
Cc1ccc(S(=O)(=O)NCCC(=O)NNC(=O)COc2ccccc2Cl)cc1C,cell number change,,31.8%
same,AC50,[1],"29100 nM [rising, single point]"
same,AC50,[2],"58 nM [rising, full curve, poor fit]"
COc1ccc(C(=O)c2oc3ccc(Br)cc3c2NC(C)=O)cc1,cell number change,,-20.7%
same,AC50,[2],"7310 nM [falling, partial curve, poor fit]"
COc1ccc(OCC(=O)Nc2c3c(nn2C(C)(C)C)CS(=O)(=O)C3)cc1,cell number change,,3.46%
O=C(CC1(O)C(=O)Nc2ccccc21)c1ccccc1O (stereo not drawn),cell number change,,-27.7%
same,AC50,[2],"1030 nM [falling, partial curve]"
CSc1nc2ccccc2c(=O)n1Cc1ccc(F)cc1,cell number change,,49.3%
same,AC50,[1],"20600 nM [rising, partial curve, poor fit]"
O=C(/C=C/c1cccc([N+](=O)[O-])c1)c1ccco1,AC50,[2],"9200 nM [falling, single point]"
CCN(CC)CCCNC(=O)Cn1ncn2cccc2c1=O,cell number change,,-6.03%
same,AC50,[2],"116 nM [falling, full curve, poor fit]"
O=c1c2c(nc3n1CCCCC3)-c1ccccc1CC21CCCC1,cell number change,,123%
same,AC50,[1],"10300 nM [rising, partial curve]"
same,AC50,[2],"13000 nM [rising, partial curve]"
COc1ccccc1OCCOCCOc1c(C)cc(C)cc1Br,cell number change,,4.13%
same,AC50,[2],"29100 nM [rising, single point]"
CCOC(=O)N1CCN(C(=O)c2ccc(NC(=O)c3ccc(C)cc3)cc2)CC1,cell number change,,-11.3%
same,AC50,[2],"29100 nM [rising, single point]"

# Some of the entries so far, with tabs.
compound	measurement	setting	value
Cc1ccc(F)cc1NC(=O)CCOc1ccccc1	AC50	[2]	1030 nM [rising, full curve]
CCOC(=O)CSC1=NC(=O)/C(=C/c2ccc(OC)cc2)S1	AC50	[2]	29100 nM [falling, single point]
CCC1Oc2ccc(Cl)cc2N(CC(=O)O)C1=O (stereo not drawn)	cell number change		-22.7%
O=c1[nH]nc(CNc2ccc(C(F)(F)F)cc2)c2ccccc12	AC50	[2]	580 nM [falling, single point]
O=C(Nc1ccc(S(=O)(=O)N2CCCC2)cc1)C1CC(=O)N(c2ccc(F)cc2)C1 (stereo not drawn)	cell number change		1.9%
